Reference: patent US11220690B2, “Formulation” (ATLANTIC PHARMACEUTICALS (HOLDINGS) LTD, priority 2017, dated 2022)
For at least one compound, name, drawing or mass did not settle the structure.

System: female BALB/c mice
Test: Ovalbumin (OVA)-induced allergic asthma mouse model, BALF analysis
Assay type: in vivo
Conditions: Day 28, dexamethasone 10 mg/kg IP, study days 14, 25-27

C[C@@H]1C[C@H]2[C@@H]3CCC4=CC(=O)C=C[C@]4(C)[C@@]3(F)[C@@H](O)C[C@]2(C)[C@@]1(O)C(=O)CO [Dexamethasone]
significantly reduced: BALF IL-13 Mean | Eosinophil (Frequency of CD45+) Mean | Granulocyte (Frequency of CD45+) Mean
